Test results reported in patent JP2005124505A.
Results are given in words; binding and its absence hold for the method and conditions named. Some binding calls cover weakened binding; strength is not graded here.

T1: 22-1-1抗原 (22-1-1 antigen) on SiSo cells (UniProt O00559)
T1 sequence (looked up): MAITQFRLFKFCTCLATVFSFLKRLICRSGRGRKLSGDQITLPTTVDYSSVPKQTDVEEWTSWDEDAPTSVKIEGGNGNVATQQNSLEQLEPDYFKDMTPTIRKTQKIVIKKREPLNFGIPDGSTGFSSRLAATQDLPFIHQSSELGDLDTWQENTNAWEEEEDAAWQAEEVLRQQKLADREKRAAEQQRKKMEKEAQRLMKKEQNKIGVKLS


Tests used:
[1] = target: T1, 22-1-1抗原 (22-1-1 antigen) on SiSo cells; assay: flow cytometry on SiSo cells, PE anti-human IgG (legend of Fig. 9)
[2] = target: T1, 22-1-1抗原 (22-1-1 antigen) on SiSo cells; assay: flow cytometry on SiSo cells
[3] = target: T1, 22-1-1抗原 (22-1-1 antigen) on SiSo cells; assay: flow cytometry on SiSo cells, PE anti-mouse IgM (legend of Fig. 8)

Binder	binding [1]	binding [2]	binding [3]
22-1-1キメラ抗体 (chimeric 22-1-1 antibody, human IgG) (antibody, V domains shown) VH: QVQLQQSGAELVRPGTSVKISCKASGYTFTNYWLGWVKQRPGHGLEWIGDIYPGGAYPNYNERFKGKATLTADTSSSTAYMQLSSLTSEDSAVYFCARYYDGYLGYWGQGTLVTVSA VL: DIQMTQSPASLSASVGETVTITCRASENIYSYLAWYQQKQGESPQLLVYNAKTLAEGVPSRFSGSGSGTQFSLKINSLQPEDFGSYYCQHHYGIPWTFGGGTKLEIK	binds	binds	
22-1-1抗体 (22-1-1モノクローナル抗体, mouse IgM, hybridoma FERM BP-7002) (antibody, V domains shown) VH: QVQLQQSGAELVRPGTSVKISCKASGYTFTNYWLGWVKQRPGHGLEWIGDIYPGGAYPNYNERFKGKATLTADTSSSTAYMQLSSLTSEDSAVYFCARYYDGYLGYWGQGTLVTVSA VL: DIQMTQSPASLSASVGETVTITCRASENIYSYLAWYQQKQGESPQLLVYNAKTLAEGVPSRFSGSGSGTQFSLKINSLQPEDFGSYYCQHHYGIPWTFGGGTKLEIK			binds
